# Several values for one entry are separate records, joined by “and”; a condition that tells them apart may be missing. Equal entries are not always repeated. The campaign covered roughly 300,000 compounds. About 5,400 (1.8%) were called active. Inconclusive results, whose numbers are uncertain, are shown with a selection of clear calls. Calls come from the whole dose curve; tested in HEK293 cells. Potencies beside an inconclusive call are fits to weak or partial responses and may not hold up.
# Experiment: qHTS for inhibitors of binding or entry into cells for Marburg Virus
# Conditions: Marburg virus pseudotyped entry inhibition, cell reporter; series mostly up to 37.8 µM
# Potency is the fitted concentration of half-maximal effect.
row,SMILES,Potency
1,COc1ccc2c(c1)O/C(=C\c1sccc1C)C2=O,inactive
2,COC(=O)C/C=C/[C@@H](C)[C@@H](/C=N/OC[C@@H](O)COCc1ccco1)OC,inactive
3,COc1ccc(CCNC(=O)COc2ccc(N(C)S(=O)(=O)c3ccc(C)cc3)cc2)cc1OC,"inconclusive: 12.6 µM [inhibitor, partial curve, poor fit]"
4,CCOc1ccc(C(=O)N(Cc2sccc2C)C2CCS(=O)(=O)C2)cc1 (stereo not drawn),inactive
5,CC(C)[C@H](NC(=O)OCc1ccccc1)C(=O)NCc1ccccc1,inactive
6,N#CC1C(=O)N=C(SCC(=O)c2ccc(Br)cc2)N=C1c1cccs1 (stereo not drawn),inactive
7,CN(Cc1ccccc1)Cc1nc2c(c(=O)n(C)c(=O)n2C)n1CCc1ccccc1,"inconclusive: 16.4 µM [inhibitor, single point]"
8,Cc1cc(C)cc(N(C(=O)c2cc3ccccc3oc2=O)C2C=CS(=O)(=O)C2)c1 (stereo not drawn),"inconclusive: 5.62 µM [activator, single point]"
9,Cc1ccc(-c2nc3c4ccccc4[nH]c(=O)n3n2)cc1,"inconclusive: 6.31 µM [activator, partial curve, poor fit]"
10,Nn1c(SCc2ccccc2F)nnc1-c1ccncc1,inactive
11,CCOc1ccc(/C=N/NC(=O)c2nnn(-c3nonc3N)c2COc2ccc(F)cc2)cc1,"inconclusive: 35.5 µM [inhibitor, single point]"
12,COCCn1c(=O)c2c(nc3n2CCCN3CCc2ccccc2)n(C)c1=O,inactive
13,O=C1NCN(c2ccccc2)C12CCNCC2,inactive
14,O=[N+]([O-])c1c(NCCO)cc(Sc2nc3ccccc3s2)c2nonc12,"inconclusive: 20.6 µM [inhibitor, single point]"
15,COCCCNC(=O)c1cc2c(=O)oc3ccc(C)cc3c2s1,inactive
16,O=C(c1ccc(CSc2nc3ccncc3n2Cc2ccc(F)cc2)cc1)N1CCCCCC1,inactive
17,O=C(CN(Cc1ccccc1)S(=O)(=O)c1ccccc1)N/N=C/c1ccc2c(c1)OCO2,"inconclusive: 14.6 µM [inhibitor, partial curve, poor fit]"
18,CCOc1ccc(C(=O)N/N=C/c2ccc(-c3ccc(S(=O)(=O)Nc4ncccn4)cc3)o2)cc1,inactive
19,O=C(O)CSc1nnc(CNc2ccc(F)cc2)n1-c1ccccc1,"inconclusive: 7.08 µM [activator, full curve, poor fit]"
20,O=C(Cn1cnnn1)Nc1cccc(S(=O)(=O)N2CCCCC2)c1,inactive
21,O=C(CSc1nnc(CCCN2C(=O)c3cccc4cccc(c34)C2=O)n1-c1ccccc1)N1CCCCC1,"inconclusive: 25.1 µM [inhibitor, partial curve, poor fit]"
22,O=C(O)CP(=O)(O)O,"inactive and inconclusive: 35.5 µM [inhibitor, single point]"
23,CCN(CC(=O)Nc1c(F)cccc1F)C(=O)C1CCN(c2ncnc3sc(C)c(C)c23)CC1,"inconclusive: 5.62 µM [inhibitor, partial curve, poor fit]"
24,O=C(c1ccc(-c2ccccc2Cl)o1)N1CCN(c2ccccc2O)CC1,"inconclusive: 1.41 µM [inhibitor, partial curve, poor fit]"
25,COc1ccc(/C(C)=N/NC(=O)c2nnn(-c3nonc3N)c2-c2ccccc2)cc1,"inconclusive: 35.5 µM [inhibitor, single point]"

row,SMILES,Potency
1,NC1=NC2(CCC(c3ccccc3)CC2)n2c(nc3ccccc32)N1 (stereo not drawn),"inconclusive: 15.8 µM [inhibitor, single point]"
2,C[C@H](NC(=O)OC(C)(C)C)c1nnc(SCc2c(F)cccc2Cl)o1,inactive
3,COc1ccccc1-n1c(SCC(=O)NC(C)(C)C)nc(O)cc1=O,inactive
4,COc1cc(/C=C2\C(=O)N(CCC#N)N=C2C)c(Br)cc1OC(C)C,inactive
5,CC(Sc1nnc(Cc2cccs2)n1C1CCCCC1)C(=O)NCc1ccco1 (stereo not drawn),"inconclusive: 8.91 µM [inhibitor, partial curve, poor fit]"
6,CCOC(=O)c1c(NC(=S)NC(=O)c2ccc(Cn3cc(Cl)cn3)o2)sc2c1CCC(C)C2 (stereo not drawn),inactive
7,Cc1ccc(-c2ccc(C(=O)O)[nH]2)cc1,inactive
8,CCOc1ccc(S(=O)(=O)N2CCOCC2)cc1NC(=O)c1ccc(N2CCCC2=O)cc1,"inconclusive: 35.5 µM [inhibitor, single point]"
9,O=C(c1ccc2c(=O)n(-c3ccccc3)c(=O)[nH]c2c1)N1CCCCC1,inactive
10,CCN1C(=O)/C(=C/N(C(C)=O)c2ccccc2)N(c2ccccc2)C1=S,inactive
11,COc1ccc(NC(=O)C2CCCNC2)cc1OCC(C)C (stereo not drawn),inactive
12,COc1ccc(C(=O)CSc2nc(-c3ccccn3)nc(C)c2Cl)cc1,"inconclusive: 3.98 µM [inhibitor, full curve, poor fit]"
13,CC1(C)CC(=O)C(C=NCCN2CCN(C(=O)Cc3ccccc3)CC2)=C(O)C1,inactive
14,Oc1ccc2ccccc2c1/C=N\n1cnnc1,"inconclusive: 9.2 µM [inhibitor, partial curve]"
15,Cc1ccc(Cl)cc1NS(=O)(=O)Cc1ccccc1,"inconclusive: 0.316 µM [inhibitor, partial curve, poor fit]"
16,S=C(c1ccc(-c2ccc(Cl)cc2Cl)o1)N1CCCCC1,"inconclusive: 35.5 µM [inhibitor, single point]"
17,Clc1cccc(Cl)c1Cn1cnc(=NCc2ccco2)c2[nH]cnc21,"inconclusive: 8.2 µM [inhibitor, partial curve, poor fit]"
18,COc1ccc(C2CC(=O)N(Cc3ccc(F)cc3)c3ccccc3S2)cc1 (stereo not drawn),inactive
19,Fc1ccc(C2c3cccn3CCN2C(=S)Nc2cccc(Br)c2)cc1 (stereo not drawn),inactive
20,CC(=O)Nc1ccc(S(=O)(=O)NCCC(=O)OCC(=O)NNC(=O)c2ccccc2)cc1,inactive
21,COc1cc(OC)c(OC)cc1/C=N/NC(=O)c1ccc(CSc2nc(C)cc(C)n2)cc1,inactive
22,O=C(CN(Cc1ccccc1)C(=O)CCC(=O)Nc1ccccn1)NCc1ccc(F)cc1,"inconclusive: 4.47 µM [activator, partial curve, poor fit]"
23,COc1cc2c(cc1OC)C(c1cccs1)N(C(=O)C(C)C)CC2 (stereo not drawn),"inconclusive: 0.366 µM [inhibitor, full curve, poor fit]"
24,O=C(COC(=O)c1ccc(Cl)nc1)NC(=O)c1ccccc1,"inconclusive: 35.5 µM [activator, single point]"
25,CCC(C)C(=O)Nc1nc2ccc(S(C)(=O)=O)cc2s1 (stereo not drawn),"inconclusive: 1.26 µM [activator, partial curve, poor fit]"

row,SMILES,Potency
1,N/C(=N\OS(=O)(=O)c1ccccc1)c1cccnc1,"inconclusive: 0.355 µM [inhibitor, partial curve, poor fit]"
2,CCOC(=O)C1=C(C)Nc2ccccc2N=C1NC(=O)c1ccc(Cl)c(S(=O)(=O)N2CCCC2)c1,"inconclusive: 25.1 µM [inhibitor, single point]"
3,Cc1cc(C(=O)NCc2ccccc2Br)no1,inactive
4,Cc1cc(=O)oc2cc3c(cc12)CCCN3,inactive
5,O=C(NNC(=S)NCc1ccccc1)c1cccc([N+](=O)[O-])c1,"inconclusive: 25.1 µM [activator, single point]"
6,CCOC(=O)Cc1csc(NC(=O)Nc2cccc(Cl)c2)n1,inactive
7,COc1ccccc1/C=C1\SC(=S)N(CCC(=O)NCCCN2CCOCC2)C1=O,"inconclusive: 3.98 µM [inhibitor, single point]"
8,CCC(=O)Nc1nc(CC(=O)Nc2ccccc2OC)cs1,inactive
9,COCCCn1c(SCC(=O)Nc2ccc(C(=O)OC)cc2)nc2ccccc2c1=O,inactive
10,O=Cc1cn(CC(=O)N2CCCc3ccccc32)c2ccccc12,"inconclusive: 22.4 µM [inhibitor, single point]"
11,Cc1cc(C)nc(/N=C(\N)Nc2ccc(CC(=O)OC(C)C)cc2)n1,"inconclusive: 7.08 µM [inhibitor, partial curve, poor fit]"
12,CC(C)=CCc1ccc(O)c(=O)cc1C(C)C,"inconclusive: 35.5 µM [inhibitor, single point]"
13,O=C(c1ccco1)n1nc(-c2ccccc2)nc1NCc1ccc(F)cc1,"inconclusive: 5.62 µM [activator, single point]"
14,CCCNC(=O)C(=O)N/N=C/c1cccs1,inactive
15,CCOc1cc(CNCCSc2nnnn2C)cc(Br)c1OCc1ccccc1,"inconclusive: 35.5 µM [inhibitor, single point]"
16,CCN(C(=O)c1cccc(Br)c1)c1ccccc1,inactive
17,COc1ccc(C2CC(c3ccc([N+](=O)[O-])cc3)=NN2C(C)=O)cc1 (stereo not drawn),"inconclusive: 22.4 µM [inhibitor, single point]"
18,CCc1ccc(N(C(=O)CNC(=O)c2ccco2)C(C(=O)NC2CCCC2)c2ccncc2)cc1 (stereo not drawn),inactive
19,Cc1cc(O)cc(O)c1C(=O)OC1(C)C(=O)C=C2C=C(/C=C/CO)OC=C2C1=O (stereo not drawn),"inconclusive: 2.66 µM [activator, single point]"
20,O=C(CSc1ncc(-c2ccccc2)n1-c1ccccc1)NCc1ccco1,inactive
21,CCCn1c(SCc2ccc(C(=O)OC)o2)nc2ccccc2c1=O,"inconclusive: 16.4 µM [inhibitor, partial curve, poor fit]"
22,Cn1c(C(=O)NCc2ccccc2F)cc2oc3ccccc3c21,"inconclusive: 0.631 µM [inhibitor, full curve, poor fit]"
23,O=C(COC(=O)CCc1ccc(S(=O)(=O)N2CCOCC2)cc1)Nc1ccccc1[N+](=O)[O-],inactive

# Quoted from the listing:
# Entry of `CCOC(=O)Cc1csc(NC(=O)Nc2cccc(Cl)c2)n1` under Potency: inactive
# Entry of `O=C(CSc1nnc(CCCN2C(=O)c3cccc4cccc(c34)C2=O)n1-c1ccccc1)N1CCCCC1` under Potency: inconclusive: 25.1 µM [inhibitor, partial curve, poor fit]
# Entry of `COc1ccc(/C(C)=N/NC(=O)c2nnn(-c3nonc3N)c2-c2ccccc2)cc1` under Potency: inconclusive: 35.5 µM [inhibitor, single point]
